The test deals with T1, SBP-PRDX1 (UniProt Q06830).
T1 sequence: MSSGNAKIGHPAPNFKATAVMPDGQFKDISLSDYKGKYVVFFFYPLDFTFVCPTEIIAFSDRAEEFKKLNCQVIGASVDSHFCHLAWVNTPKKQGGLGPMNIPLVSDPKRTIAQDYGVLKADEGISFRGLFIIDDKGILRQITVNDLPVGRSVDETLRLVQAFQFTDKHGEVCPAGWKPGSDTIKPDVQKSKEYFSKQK
The test is described as follows: pull-down; SBP-tagged protein transfected into C4-2 or PC3 cells, H2O2 for 2 min, free thiols blocked with 20 mM MMTS, lysate on SA-Sepharose beads, washes with 1 % Triton X-100 and 1 M urea, elution with biotin, non-reducing immunoblotting (disulfide-linked conjugates). Background: Immunoblotting shows a protein as a band on a membrane.

Protein sequences, listed by entry. Tags and fused reporters are not part of them.
UniProt Q8NCD3: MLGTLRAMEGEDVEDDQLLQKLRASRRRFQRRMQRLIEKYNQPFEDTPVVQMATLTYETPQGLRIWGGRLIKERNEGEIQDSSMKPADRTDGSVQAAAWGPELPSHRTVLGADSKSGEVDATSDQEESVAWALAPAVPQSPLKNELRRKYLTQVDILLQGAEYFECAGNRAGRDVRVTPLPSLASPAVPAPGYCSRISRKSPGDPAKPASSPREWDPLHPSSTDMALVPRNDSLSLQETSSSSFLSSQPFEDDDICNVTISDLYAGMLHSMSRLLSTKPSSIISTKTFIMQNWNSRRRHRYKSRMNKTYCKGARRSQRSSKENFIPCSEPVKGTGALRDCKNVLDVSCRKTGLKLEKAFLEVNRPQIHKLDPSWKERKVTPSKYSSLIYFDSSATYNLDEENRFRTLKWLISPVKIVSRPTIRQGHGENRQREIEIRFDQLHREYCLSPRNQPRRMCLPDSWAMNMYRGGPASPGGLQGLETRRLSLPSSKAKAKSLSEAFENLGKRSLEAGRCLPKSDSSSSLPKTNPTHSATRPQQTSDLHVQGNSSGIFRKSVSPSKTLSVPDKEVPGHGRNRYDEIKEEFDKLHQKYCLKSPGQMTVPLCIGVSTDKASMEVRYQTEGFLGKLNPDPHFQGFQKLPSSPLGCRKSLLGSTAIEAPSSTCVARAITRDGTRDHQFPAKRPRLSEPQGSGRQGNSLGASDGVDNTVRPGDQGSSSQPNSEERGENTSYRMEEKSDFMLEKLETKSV

Results are given in words; binding and its absence hold for the method and conditions named. In cells and extracts the contact can be indirect. Some results given as binding are weak or reduced against the parent protein; the word gives no strength.

For the substance “Holliday junction recognition protein (HJURP) (from UniProt Q8NCD3 1-748)”, the binding result is listed as “binds”.

Source of the values: paper PMC11525750.
